The results in this text go back to doi:10.1101/2025.05.16.654427.

These are yes or no findings as the source states them, for the method shown. In cells and extracts the contact can be indirect. Some entries that bind do so weakly or less than the wild type. Where a sequence is shown, tags or fusion partners need not be part of it.

Experiment in all cases: co-IP
For experiment [1], the target named is T1, HA-tagged human NUSAP1 (nucleolar and spindle-associated protein 1), wild type (human) (UniProt Q9BXS6).
T1 sequence: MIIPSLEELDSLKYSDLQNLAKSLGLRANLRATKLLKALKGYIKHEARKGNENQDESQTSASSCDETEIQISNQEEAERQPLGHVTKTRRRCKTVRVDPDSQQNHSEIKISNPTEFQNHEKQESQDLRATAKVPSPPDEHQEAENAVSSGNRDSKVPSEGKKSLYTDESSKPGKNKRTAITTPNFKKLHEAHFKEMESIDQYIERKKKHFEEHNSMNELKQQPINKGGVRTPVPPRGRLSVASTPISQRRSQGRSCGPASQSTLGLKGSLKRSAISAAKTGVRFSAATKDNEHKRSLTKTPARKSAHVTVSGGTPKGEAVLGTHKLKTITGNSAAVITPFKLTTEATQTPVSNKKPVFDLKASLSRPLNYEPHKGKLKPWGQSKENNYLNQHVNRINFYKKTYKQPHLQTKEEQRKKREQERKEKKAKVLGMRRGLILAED

Experiment [2] deals with T2, Flag-tagged human Aurora kinase A (AURKA) (human) (UniProt O14965).
T2 sequence: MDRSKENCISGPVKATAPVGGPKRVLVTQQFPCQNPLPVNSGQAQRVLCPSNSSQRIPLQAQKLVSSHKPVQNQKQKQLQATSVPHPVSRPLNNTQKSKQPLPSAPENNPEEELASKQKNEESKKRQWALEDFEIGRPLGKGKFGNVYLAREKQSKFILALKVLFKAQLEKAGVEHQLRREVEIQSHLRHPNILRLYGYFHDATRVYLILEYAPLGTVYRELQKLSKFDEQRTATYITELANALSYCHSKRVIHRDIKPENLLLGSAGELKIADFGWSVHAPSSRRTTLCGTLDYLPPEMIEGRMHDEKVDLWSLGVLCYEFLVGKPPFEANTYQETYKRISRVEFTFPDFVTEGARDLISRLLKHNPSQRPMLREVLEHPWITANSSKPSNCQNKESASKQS

Experiment [3] has as its target T3, Flag-tagged human KIF2C (human) (UniProt Q99661).
T3 sequence: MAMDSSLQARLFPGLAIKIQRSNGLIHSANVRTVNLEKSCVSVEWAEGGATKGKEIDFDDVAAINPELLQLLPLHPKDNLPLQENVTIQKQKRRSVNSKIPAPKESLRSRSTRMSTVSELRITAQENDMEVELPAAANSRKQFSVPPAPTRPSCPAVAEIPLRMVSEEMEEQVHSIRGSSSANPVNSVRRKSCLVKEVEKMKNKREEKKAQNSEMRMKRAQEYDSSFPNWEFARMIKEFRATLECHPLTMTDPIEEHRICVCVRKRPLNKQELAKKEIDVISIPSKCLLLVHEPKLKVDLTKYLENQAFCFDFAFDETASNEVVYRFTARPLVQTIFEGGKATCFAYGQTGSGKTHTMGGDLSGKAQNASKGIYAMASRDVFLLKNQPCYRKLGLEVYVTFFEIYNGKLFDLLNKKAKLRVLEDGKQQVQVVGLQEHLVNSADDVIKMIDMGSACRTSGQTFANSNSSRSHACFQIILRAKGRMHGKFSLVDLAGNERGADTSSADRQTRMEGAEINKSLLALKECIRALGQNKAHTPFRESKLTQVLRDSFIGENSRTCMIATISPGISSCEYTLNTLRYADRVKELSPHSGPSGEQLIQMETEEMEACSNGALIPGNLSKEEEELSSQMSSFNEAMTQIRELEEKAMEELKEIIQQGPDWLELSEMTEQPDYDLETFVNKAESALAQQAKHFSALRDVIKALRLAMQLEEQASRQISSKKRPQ

Experiment [4] addresses T4, GFP-tagged human KIF2C (human) (UniProt Q99661).
T4 sequence: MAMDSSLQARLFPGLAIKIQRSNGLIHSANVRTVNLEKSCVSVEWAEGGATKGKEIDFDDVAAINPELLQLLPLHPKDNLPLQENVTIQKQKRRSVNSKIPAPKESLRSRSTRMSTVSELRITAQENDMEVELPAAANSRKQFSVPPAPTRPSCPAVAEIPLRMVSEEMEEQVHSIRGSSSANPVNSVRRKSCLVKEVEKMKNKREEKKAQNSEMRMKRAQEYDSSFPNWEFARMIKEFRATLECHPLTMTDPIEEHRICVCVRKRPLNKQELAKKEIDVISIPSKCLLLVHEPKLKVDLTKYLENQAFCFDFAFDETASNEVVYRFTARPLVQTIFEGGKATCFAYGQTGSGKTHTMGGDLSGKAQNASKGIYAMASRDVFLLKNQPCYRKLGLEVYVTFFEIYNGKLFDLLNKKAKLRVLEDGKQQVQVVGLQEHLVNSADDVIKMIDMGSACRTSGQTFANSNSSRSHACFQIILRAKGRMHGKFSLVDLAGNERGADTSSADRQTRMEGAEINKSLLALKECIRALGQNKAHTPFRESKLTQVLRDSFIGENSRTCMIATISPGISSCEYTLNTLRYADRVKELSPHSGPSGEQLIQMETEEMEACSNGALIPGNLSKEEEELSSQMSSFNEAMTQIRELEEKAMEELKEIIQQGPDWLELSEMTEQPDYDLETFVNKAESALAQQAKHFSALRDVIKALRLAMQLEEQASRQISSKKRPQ

B1: Flag-tagged human Aurora kinase A (AURKA) (enzyme, UniProt O14965 1-403)
chain: MDRSKENCISGPVKATAPVGGPKRVLVTQQFPCQNPLPVNSGQAQRVLCPSNSSQRIPLQAQKLVSSHKPVQNQKQKQLQATSVPHPVSRPLNNTQKSKQPLPSAPENNPEEELASKQKNEESKKRQWALEDFEIGRPLGKGKFGNVYLAREKQSKFILALKVLFKAQLEKAGVEHQLRREVEIQSHLRHPNILRLYGYFHDATRVYLILEYAPLGTVYRELQKLSKFDEQRTATYITELANALSYCHSKRVIHRDIKPENLLLGSAGELKIADFGWSVHAPSSRRTTLCGTLDYLPPEMIEGRMHDEKVDLWSLGVLCYEFLVGKPPFEANTYQETYKRISRVEFTFPDFVTEGARDLISRLLKHNPSQRPMLREVLEHPWITANSSKPSNCQNKESASKQS
For B1, the binding result in experiment [1] is “binds”.

B2: GFP-tagged human KIF2C (protein, UniProt Q99661-1 1-725)
chain: MAMDSSLQARLFPGLAIKIQRSNGLIHSANVRTVNLEKSCVSVEWAEGGATKGKEIDFDDVAAINPELLQLLPLHPKDNLPLQENVTIQKQKRRSVNSKIPAPKESLRSRSTRMSTVSELRITAQENDMEVELPAAANSRKQFSVPPAPTRPSCPAVAEIPLRMVSEEMEEQVHSIRGSSSANPVNSVRRKSCLVKEVEKMKNKREEKKAQNSEMRMKRAQEYDSSFPNWEFARMIKEFRATLECHPLTMTDPIEEHRICVCVRKRPLNKQELAKKEIDVISIPSKCLLLVHEPKLKVDLTKYLENQAFCFDFAFDETASNEVVYRFTARPLVQTIFEGGKATCFAYGQTGSGKTHTMGGDLSGKAQNASKGIYAMASRDVFLLKNQPCYRKLGLEVYVTFFEIYNGKLFDLLNKKAKLRVLEDGKQQVQVVGLQEHLVNSADDVIKMIDMGSACRTSGQTFANSNSSRSHACFQIILRAKGRMHGKFSLVDLAGNERGADTSSADRQTRMEGAEINKSLLALKECIRALGQNKAHTPFRESKLTQVLRDSFIGENSRTCMIATISPGISSCEYTLNTLRYADRVKELSPHSGPSGEQLIQMETEEMEACSNGALIPGNLSKEEEELSSQMSSFNEAMTQIRELEEKAMEELKEIIQQGPDWLELSEMTEQPDYDLETFVNKAESALAQQAKHFSALRDVIKALRLAMQLEEQASRQISSKKRPQ
Consider B2, for which the binding entry in experiment [1] is “binds”.

B3: HA-tagged human NUSAP1 c.1213C>T (p.Gln405*) truncated mutant (domain or fragment, UniProt Q9BXS6-1 1-404)
chain: MIIPSLEELDSLKYSDLQNLAKSLGLRANLRATKLLKALKGYIKHEARKGNENQDESQTSASSCDETEIQISNQEEAERQPLGHVTKTRRRCKTVRVDPDSQQNHSEIKISNPTEFQNHEKQESQDLRATAKVPSPPDEHQEAENAVSSGNRDSKVPSEGKKSLYTDESSKPGKNKRTAITTPNFKKLHEAHFKEMESIDQYIERKKKHFEEHNSMNELKQQPINKGGVRTPVPPRGRLSVASTPISQRRSQGRSCGPASQSTLGLKGSLKRSAISAAKTGVRFSAATKDNEHKRSLTKTPARKSAHVTVSGGTPKGEAVLGTHKLKTITGNSAAVITPFKLTTEATQTPVSNKKPVFDLKASLSRPLNYEPHKGKLKPWGQSKENNYLNQHVNRINFYKKTYK
Take B3: the binding result in experiment [2] is “binds”.

B4: HA-tagged human NUSAP1 c.1209C>G (p.Tyr403*) truncated mutant (domain or fragment, UniProt Q9BXS6-1 1-402)
chain: MIIPSLEELDSLKYSDLQNLAKSLGLRANLRATKLLKALKGYIKHEARKGNENQDESQTSASSCDETEIQISNQEEAERQPLGHVTKTRRRCKTVRVDPDSQQNHSEIKISNPTEFQNHEKQESQDLRATAKVPSPPDEHQEAENAVSSGNRDSKVPSEGKKSLYTDESSKPGKNKRTAITTPNFKKLHEAHFKEMESIDQYIERKKKHFEEHNSMNELKQQPINKGGVRTPVPPRGRLSVASTPISQRRSQGRSCGPASQSTLGLKGSLKRSAISAAKTGVRFSAATKDNEHKRSLTKTPARKSAHVTVSGGTPKGEAVLGTHKLKTITGNSAAVITPFKLTTEATQTPVSNKKPVFDLKASLSRPLNYEPHKGKLKPWGQSKENNYLNQHVNRINFYKKT
In the case of B4, the binding result in experiment [2] is “binds”.

B5: HA-tagged human NUSAP1 (nucleolar and spindle-associated protein 1), wild type (protein, UniProt Q9BXS6-1 1-441)
chain: MIIPSLEELDSLKYSDLQNLAKSLGLRANLRATKLLKALKGYIKHEARKGNENQDESQTSASSCDETEIQISNQEEAERQPLGHVTKTRRRCKTVRVDPDSQQNHSEIKISNPTEFQNHEKQESQDLRATAKVPSPPDEHQEAENAVSSGNRDSKVPSEGKKSLYTDESSKPGKNKRTAITTPNFKKLHEAHFKEMESIDQYIERKKKHFEEHNSMNELKQQPINKGGVRTPVPPRGRLSVASTPISQRRSQGRSCGPASQSTLGLKGSLKRSAISAAKTGVRFSAATKDNEHKRSLTKTPARKSAHVTVSGGTPKGEAVLGTHKLKTITGNSAAVITPFKLTTEATQTPVSNKKPVFDLKASLSRPLNYEPHKGKLKPWGQSKENNYLNQHVNRINFYKKTYKQPHLQTKEEQRKKREQERKEKKAKVLGMRRGLILAED
With B5, the binding entry in experiment [3], in experiment [4] and in experiment [2] was “binds” each time.
